Assay results published in paper PMC10567733, “C9orf72-catalyzed GTP loading of Rab39A enables HOPS-mediated membrane tethering and fusion in mammalian autophagy” (Nature Communications, 2023).
Results are given in words; binding and its absence hold for the method and conditions named. Binding seen in cells or lysates may run through a third protein. Binding calls can cover weak binding; strength is not graded here. Tags and fused reporters may be left off the sequences shown.

The chains behind the UniProt entries cited, without tags or fusion partners. Where a name states a change or a piece, a line headed by the entry shows the natural chain unless it says otherwise.
UniProt Q96DA2: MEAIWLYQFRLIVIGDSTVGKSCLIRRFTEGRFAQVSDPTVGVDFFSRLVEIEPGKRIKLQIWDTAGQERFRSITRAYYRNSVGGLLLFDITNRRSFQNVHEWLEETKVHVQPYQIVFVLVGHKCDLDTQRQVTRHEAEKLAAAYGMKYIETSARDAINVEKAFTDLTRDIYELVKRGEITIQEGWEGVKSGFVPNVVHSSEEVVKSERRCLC

Biological target: T1, C9orf72-HA (human) (UniProt Q96LT7)
T1 sequence: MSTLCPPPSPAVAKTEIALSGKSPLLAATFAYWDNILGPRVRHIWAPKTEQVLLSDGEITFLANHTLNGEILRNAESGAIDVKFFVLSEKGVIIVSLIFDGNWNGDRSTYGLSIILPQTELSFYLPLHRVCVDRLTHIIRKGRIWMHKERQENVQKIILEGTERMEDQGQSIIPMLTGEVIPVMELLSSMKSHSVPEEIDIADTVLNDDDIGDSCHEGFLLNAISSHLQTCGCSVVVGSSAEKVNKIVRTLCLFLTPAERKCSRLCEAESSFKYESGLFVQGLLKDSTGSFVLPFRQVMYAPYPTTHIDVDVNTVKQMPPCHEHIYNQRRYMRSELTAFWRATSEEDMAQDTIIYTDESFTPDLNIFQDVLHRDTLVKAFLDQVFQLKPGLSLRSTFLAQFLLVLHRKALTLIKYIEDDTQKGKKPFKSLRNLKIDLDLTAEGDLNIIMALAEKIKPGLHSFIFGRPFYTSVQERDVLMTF
Assay: co-IP; 293T cells transfected with tagged protein expression plasmids, lysed after 24 h, IP with Flag M2 agarose or HA agarose, immunoblot; in some panels with or without overexpressed Rab39A, with or without 50 nM Torin 1 for 3 h

- binding: binds
Substance: EGFP-Rab39B SN (from UniProt Q96DA2)
